In the assay the test system is Gardner 6C3HED lymphosarcoma ip, C3AKF1 mice, survival T/C. The experiment in a line: NCI In Vivo Anticancer Drug Screen. Data for tumor model Lymphosarcoma Gardner 6C3HED (intraperitoneal) in C3AKF1 (CHKRF1) mice. The following applies: T/C endpoint: survival time, mean or median, higher T/C = longer survival. The method, then: The antitumor activity of compounds was measured in mice bearing transplantable tumors. Survival or tumor size were measured and the results are expressed as the measurement made in the treated group (T) divided by the measurement made in the vehicle treated control group (C). The tumor model used in this assay is Lymphosarcoma Gardner 6C3HED (intraperitoneal) in C3AKF1 (CHKRF1) mice

Where [1] appears, read: dose: 12.0 mg/kg/injection, schedule: Q01DX010 (ip), vehicle: saline.
Setting [2] is: dose: 0.25 mg/kg/injection, schedule: Q01DX010 (ip), vehicle: saline.
Where [3] appears, read: dose: 3.0 mg/kg/injection, schedule: Q01DX010 (ip), vehicle: other.
Where [4] appears, read: dose: 4.0 mg/kg/injection, schedule: Q01DX010 (ip), vehicle: saline.
Where [5] appears, read: dose: 8.0 mg/kg/injection, schedule: Q01DX010 (ip), vehicle: saline.
Where [6] appears, read: dose: 125.0 mg/kg/injection, schedule: Q01DX010 (ip), vehicle: saline.
Where [7] appears, read: dose: 250.0 mg/kg/injection, schedule: Q01DX010 (ip), vehicle: saline.
[8] abbreviates: dose: 6.25 mg/kg/injection, schedule: Q01DX010 (ip), vehicle: saline.
The mark [9] stands for this setting: dose: 25.0 mg/kg/injection, schedule: Q01DX010 (ip), vehicle: saline.
Where [10] appears, read: dose: 5.0 mg/kg/injection, schedule: Q01DX010 (ip), vehicle: saline.
Where [11] appears, read: dose: 90.0 mg/kg/injection, schedule: Q01DX010 (ip), vehicle: saline.
[12] abbreviates: dose: 12.5 mg/kg/injection, schedule: Q01DX010 (ip), vehicle: saline.

The list is a part of this screen's results and no random one: it is rich in T/C values a quarter to a half above the control, in often repeated tests (any T/C) and in doses without a T/C. Other doses and runs of a compound stand elsewhere. T/C gives the treated animals as a percentage of the vehicle group. Some entries give survivors of the animals treated and no T/C: the source holds a T/C of zero for them, seemingly a mark for toxic or unscored doses. Some survivor counts are full or nearly so, which does not show that the dose was tolerated: survival well below the control is almost never listed, so the zero probably covers shortened survival too. Survivors were counted at the toxicity check, usually on the fifth day, unless a day is given; later deaths do not show. Schedule codes are those of the source, taken here to give the interval after Q, in days (D) or hours (H), and the number of doses after X. Some entries were tested several times; the values are given in rising order. Some molecules as drawn cover several salts, stereoisomers or complexes of the source; a dose is that of the sample tested. For survival time, this PubChem deposit counts one and a half times the control or more as active, and values a quarter to a half above the control carry no call in these data; other NCI protocols may use other cut-offs. Brackets with × give the number of equal values in this list. Some T/C values are followed by the survivors on the day toxicity was checked, most often the fifth; without a count, all were alive then.

As for `C[n+]1c2ccccc2nc2c(N)cc(N)cc21`, the T/C was 127 % of control under setting [1]; 131 % of control [5 of 6 alive] (dose: 18.0 mg/kg/injection, schedule: Q01DX010 (ip), vehicle: saline); 131 % of control (2×) (dose: 27.0 mg/kg/injection, schedule: Q01DX010 (ip), vehicle: saline); 131 % of control [5 of 6 alive] (dose: 40.0 mg/kg/injection, schedule: Q01DX010 (ip), vehicle: saline).
As to `N#[N+]c1cnc([O-])[nH]c1=O`, the T/C (dose: 1.25 mg/kg/injection, schedule: Q01DX010 (ip), vehicle: saline) is 125 % of control.
On to `CSCS(=O)C[C@H](CO)NC(=O)/C=C/c1c(C)[nH]c(=O)[nH]c1=O` (stereo partly specified), for which the survivor count (dose: 0.13 mg/kg/injection, schedule: Q01DX010 (ip), vehicle: saline) is listed as 6 of 6; the survivor count under setting [2] is reported as 6 of 6; the survivor count (dose: 1.0 mg/kg/injection, schedule: Q01DX010 (ip), vehicle: saline) was 6 of 6.
For the compound `O=C(Nc1ccc(C2=NCCCN2)cc1)c1ccc(C(=O)Nc2ccc(C3=NCCCN3)cc2)cc1`, the survivor count reads like this: (dose: 4.0 mg/kg/injection, schedule: Q01DX010 (ip), vehicle: other) 5 of 6; (dose: 8.0 mg/kg/injection, schedule: Q01DX010 (ip), vehicle: other) 3 of 6 and 5 of 6; (dose: 16.0 mg/kg/injection, schedule: Q01DX010 (ip), vehicle: other) 3 of 6 and 4 of 6.
On to `CN(Cc1cnc2nc(N)nc(N)c2n1)c1ccc(C(=O)N[C@@H](CCC(=O)O)C(=O)O)cc1`, for which the T/C (dose: 0.19 mg/kg/injection, schedule: Q01DX010 (ip), vehicle: other) is recorded as 100, 116, 125, 135 % of control; the T/C (dose: 0.38 mg/kg/injection, schedule: Q01DX010 (ip), vehicle: other) was 125, 133, 150, 180 % of control; the T/C (dose: 0.75 mg/kg/injection, schedule: Q01DX010 (ip), vehicle: other) was 175, 187, 195, 230 % of control; the T/C (dose: 1.5 mg/kg/injection, schedule: Q01DX010 (ip), vehicle: other) is on record as 212, 250, 285, 300 % of control; the T/C under setting [3] is 229 and 300 % of control. Also, the survivor count under setting [3] is 5 of 6 and 6 of 6.
As to `O=C1C(NC(=O)C2CCCCC2)=C(N2CC2)C(=O)C(NC(=O)C2CCCCC2)=C1N1CC1`, the T/C is 126 % of control (dose: 100.0 mg/kg/injection, schedule: Q01DX010 (ip), vehicle: saline) and 134 % of control (dose: 200.0 mg/kg/injection, schedule: Q01DX010 (ip), vehicle: saline).
`NC(=O)N(CCCl)N=O`: the T/C (dose: 2.0 mg/kg/injection, schedule: Q01DX010 (ip), vehicle: saline) is 127 and 137 % of control. The survivor count under setting [4] is given as 6 of 6.
Consider `CN(C)c1nc(N(C)C)nc(N(C)C)n1`, for which the survivor count is, setting by setting: (dose: 18.8 mg/kg/injection, schedule: Q01DX010 (ip), vehicle: saline) 6 of 6; (dose: 37.5 mg/kg/injection, schedule: Q01DX010 (ip), vehicle: saline) 6 of 6; (dose: 75.0 mg/kg/injection, schedule: Q01DX010 (ip), vehicle: saline) 6 of 6; (dose: 150.0 mg/kg/injection, schedule: Q01DX010 (ip), vehicle: saline) 6 of 6; (dose: 300.0 mg/kg/injection, schedule: Q01DX010 (ip), vehicle: saline) 5 of 6.
As for `Nc1nc(SCc2ccccc2)c2[nH]cnc2n1`, the survivor count under setting [5] was 6 of 6 and the survivor count (dose: 16.0 mg/kg/injection, schedule: Q01DX010 (ip), vehicle: saline) is listed as 6 of 6.
As to `Nc1ncnc2[nH]ncc12`, the survivor count under setting [1] is on record as 6 of 6.
As to `CCCCNc1ncnc2c1cnn2C`, the survivor count by setting is: under setting [6], 2 of 6 and 4 of 6; under setting [7], 0 of 6.
For `N=[N+]=CC(=O)OCC(N)C(=O)O` (stereo unspecified), the T/C runs as follows: (dose: 3.13 mg/kg/injection, schedule: Q01DX010 (ip), vehicle: saline) 130 and 135 % of control; under setting [8], 135 % of control. Moreover, under setting [9], the survivor count was 6 of 6.
In the case of `O=c1cnn(C2OC(CO)C(O)C2O)c(=O)[nH]1` (stereo unspecified), the survivor count (dose: 1600.0 mg/kg/injection, schedule: Q01DX010 (ip), vehicle: saline) is on record as 6 of 6.
As for `NC(Cc1ccc(N(CCCl)CCCl)cc1)C(=O)O` (stereo unspecified), the T/C by setting is: (dose: 2.5 mg/kg/injection, schedule: Q01DX010 (ip), vehicle: saline) 129 % of control; under setting [4], 130 and 140 % of control; under setting [10], 137 % of control; under setting [5], 140 % of control. Moreover, the survivor count (dose: 20.0 mg/kg/injection, schedule: Q01DX010 (ip), vehicle: saline) is 6 of 6.
In the case of `NC(Cc1c[nH]c2ccc(N(CCCl)CCCl)cc12)C(=O)O` (stereo unspecified), the T/C was 136 and 140 % of control under setting [2]; 127 % of control (dose: 0.5 mg/kg/injection, schedule: Q01DX010 (ip), vehicle: saline).
For `CCn1cnc2c(=S)nc[nH]c21`, the survivor count is, setting by setting: (dose: 15.6 mg/kg/injection, schedule: Q01DX010 (ip), vehicle: saline) 6 of 6; (dose: 62.5 mg/kg/injection, schedule: Q01DX010 (ip), vehicle: saline) 6 of 6; under setting [6], 6 of 6.
`CC(=O)O[C@]1(C(C)=O)CC[C@H]2[C@@H]3C[C@H](C)C4=CC(=O)C=C[C@]4(C)[C@@]3(F)[C@@H](O)C[C@@]21C`: for the setting “dose: 100.0 mg/kg/injection, schedule: Q01DX010 (sc), vehicle: steroid suspending solution”, the survivor count is recorded as 6 of 6.
Consider `CCOC(=O)NP(=O)(N1CC1(C)C)N1CC1(C)C` (stereo unspecified), for which the T/C reads like this: under setting [6], 126 % of control; under setting [7], 130 % of control.
For `O=P1(N(CCCl)CCCl)NCCCO1` (stereo unspecified), the T/C is on record as 137, 166, 175, 200 % of control (dose: 11.3 mg/kg/injection, schedule: Q01DX010 (ip), vehicle: saline); 170, 187, 195, 270 % of control (dose: 22.5 mg/kg/injection, schedule: Q01DX010 (ip), vehicle: saline); 125, 129, 250, 300 % of control (dose: 45.0 mg/kg/injection, schedule: Q01DX010 (ip), vehicle: saline); 100, 105, 108, 154 % of control under setting [11]. For the same compound, the survivor count (dose: 180.0 mg/kg/injection, schedule: Q01DX010 (ip), vehicle: saline) was 5 of 6 and 6 of 6.
Regarding `O=c1[nH]cc(F)c(=O)[nH]1`, under setting [10], the T/C was 141 % of control.
`CN(N=O)C(=O)NC(C=O)C(O)C(O)C(O)CO` (stereo unspecified): under setting [11], the T/C was 127 and 131 % of control.
Turning to `CS(=O)(=O)OCCCCOS(C)(=O)=O`, the T/C by setting is: under setting [8], 95 and 100 % of control; under setting [12], 86 and 91 % of control. For the same compound, the survivor count is 6 of 6 under setting [8]; 5 of 6 and 6 of 6 under setting [12]; 5 of 6 and 6 of 6 under setting [9]; 6 of 6 (dose: 50.0 mg/kg/injection, schedule: Q01DX010 (ip), vehicle: saline).

For the origin of these results see PubChem BioAssay AID232 (DTP/NCI, 2004).
